Experimental findings from the supplement of paper PMC10849652 are described below.

The chains behind the UniProt entries cited, without tags or fusion partners. Where a name states a change or a piece, a line headed by the entry shows the natural chain unless it says otherwise.
UniProt Q15311: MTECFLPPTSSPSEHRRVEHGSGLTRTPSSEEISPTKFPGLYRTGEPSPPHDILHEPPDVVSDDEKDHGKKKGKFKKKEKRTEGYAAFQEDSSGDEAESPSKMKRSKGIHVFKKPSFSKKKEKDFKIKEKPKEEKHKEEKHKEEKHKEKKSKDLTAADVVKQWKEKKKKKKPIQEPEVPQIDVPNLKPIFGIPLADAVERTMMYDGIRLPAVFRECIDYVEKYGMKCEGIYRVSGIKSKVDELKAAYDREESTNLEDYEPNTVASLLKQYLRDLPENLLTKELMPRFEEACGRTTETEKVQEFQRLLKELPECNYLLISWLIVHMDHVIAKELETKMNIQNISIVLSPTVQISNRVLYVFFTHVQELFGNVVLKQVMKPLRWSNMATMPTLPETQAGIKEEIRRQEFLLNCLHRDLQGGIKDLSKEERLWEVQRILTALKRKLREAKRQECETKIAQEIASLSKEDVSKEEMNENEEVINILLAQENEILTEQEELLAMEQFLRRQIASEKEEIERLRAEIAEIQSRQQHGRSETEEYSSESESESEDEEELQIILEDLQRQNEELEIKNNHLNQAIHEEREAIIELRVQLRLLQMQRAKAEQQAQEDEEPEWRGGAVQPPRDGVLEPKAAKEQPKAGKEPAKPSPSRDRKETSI
UniProt Q96QF0: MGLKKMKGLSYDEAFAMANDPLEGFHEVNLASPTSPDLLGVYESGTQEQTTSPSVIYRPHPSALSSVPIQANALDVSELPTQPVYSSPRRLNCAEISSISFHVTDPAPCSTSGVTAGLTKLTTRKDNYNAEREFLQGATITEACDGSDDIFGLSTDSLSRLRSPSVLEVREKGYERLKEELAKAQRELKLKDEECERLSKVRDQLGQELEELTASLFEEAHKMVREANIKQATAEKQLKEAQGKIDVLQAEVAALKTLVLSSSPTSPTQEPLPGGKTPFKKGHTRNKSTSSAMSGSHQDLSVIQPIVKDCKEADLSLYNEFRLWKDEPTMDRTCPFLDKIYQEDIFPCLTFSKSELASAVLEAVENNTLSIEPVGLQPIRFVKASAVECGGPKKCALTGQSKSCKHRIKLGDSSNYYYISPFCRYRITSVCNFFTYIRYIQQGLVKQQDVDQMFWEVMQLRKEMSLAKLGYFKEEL
UniProt Q15042: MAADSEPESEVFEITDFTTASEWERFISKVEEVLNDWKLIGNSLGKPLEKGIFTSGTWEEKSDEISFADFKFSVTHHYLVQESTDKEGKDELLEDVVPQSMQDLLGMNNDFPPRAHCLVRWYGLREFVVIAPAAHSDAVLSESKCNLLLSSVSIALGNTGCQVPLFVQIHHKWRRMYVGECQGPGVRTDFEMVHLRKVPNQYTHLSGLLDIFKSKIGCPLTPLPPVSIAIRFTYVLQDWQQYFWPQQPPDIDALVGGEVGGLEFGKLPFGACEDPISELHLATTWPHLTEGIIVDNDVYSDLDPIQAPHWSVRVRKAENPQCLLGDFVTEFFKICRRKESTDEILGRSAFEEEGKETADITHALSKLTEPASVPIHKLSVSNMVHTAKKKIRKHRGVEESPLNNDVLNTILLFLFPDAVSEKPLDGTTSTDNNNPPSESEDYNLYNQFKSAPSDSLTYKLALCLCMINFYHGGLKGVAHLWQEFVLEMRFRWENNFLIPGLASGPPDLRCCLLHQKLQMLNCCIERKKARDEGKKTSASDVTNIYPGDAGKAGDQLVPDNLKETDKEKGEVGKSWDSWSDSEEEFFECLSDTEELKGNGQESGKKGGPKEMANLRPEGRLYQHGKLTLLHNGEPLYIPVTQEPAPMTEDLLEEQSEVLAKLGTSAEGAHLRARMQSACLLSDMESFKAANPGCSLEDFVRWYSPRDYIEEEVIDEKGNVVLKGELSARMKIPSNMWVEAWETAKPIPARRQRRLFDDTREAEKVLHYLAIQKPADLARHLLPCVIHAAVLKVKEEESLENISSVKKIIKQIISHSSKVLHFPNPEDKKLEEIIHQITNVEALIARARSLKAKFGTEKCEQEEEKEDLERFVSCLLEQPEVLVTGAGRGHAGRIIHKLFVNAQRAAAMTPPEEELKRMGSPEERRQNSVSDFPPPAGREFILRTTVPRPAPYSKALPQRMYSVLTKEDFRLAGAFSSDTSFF
UniProt Q9Y4B4: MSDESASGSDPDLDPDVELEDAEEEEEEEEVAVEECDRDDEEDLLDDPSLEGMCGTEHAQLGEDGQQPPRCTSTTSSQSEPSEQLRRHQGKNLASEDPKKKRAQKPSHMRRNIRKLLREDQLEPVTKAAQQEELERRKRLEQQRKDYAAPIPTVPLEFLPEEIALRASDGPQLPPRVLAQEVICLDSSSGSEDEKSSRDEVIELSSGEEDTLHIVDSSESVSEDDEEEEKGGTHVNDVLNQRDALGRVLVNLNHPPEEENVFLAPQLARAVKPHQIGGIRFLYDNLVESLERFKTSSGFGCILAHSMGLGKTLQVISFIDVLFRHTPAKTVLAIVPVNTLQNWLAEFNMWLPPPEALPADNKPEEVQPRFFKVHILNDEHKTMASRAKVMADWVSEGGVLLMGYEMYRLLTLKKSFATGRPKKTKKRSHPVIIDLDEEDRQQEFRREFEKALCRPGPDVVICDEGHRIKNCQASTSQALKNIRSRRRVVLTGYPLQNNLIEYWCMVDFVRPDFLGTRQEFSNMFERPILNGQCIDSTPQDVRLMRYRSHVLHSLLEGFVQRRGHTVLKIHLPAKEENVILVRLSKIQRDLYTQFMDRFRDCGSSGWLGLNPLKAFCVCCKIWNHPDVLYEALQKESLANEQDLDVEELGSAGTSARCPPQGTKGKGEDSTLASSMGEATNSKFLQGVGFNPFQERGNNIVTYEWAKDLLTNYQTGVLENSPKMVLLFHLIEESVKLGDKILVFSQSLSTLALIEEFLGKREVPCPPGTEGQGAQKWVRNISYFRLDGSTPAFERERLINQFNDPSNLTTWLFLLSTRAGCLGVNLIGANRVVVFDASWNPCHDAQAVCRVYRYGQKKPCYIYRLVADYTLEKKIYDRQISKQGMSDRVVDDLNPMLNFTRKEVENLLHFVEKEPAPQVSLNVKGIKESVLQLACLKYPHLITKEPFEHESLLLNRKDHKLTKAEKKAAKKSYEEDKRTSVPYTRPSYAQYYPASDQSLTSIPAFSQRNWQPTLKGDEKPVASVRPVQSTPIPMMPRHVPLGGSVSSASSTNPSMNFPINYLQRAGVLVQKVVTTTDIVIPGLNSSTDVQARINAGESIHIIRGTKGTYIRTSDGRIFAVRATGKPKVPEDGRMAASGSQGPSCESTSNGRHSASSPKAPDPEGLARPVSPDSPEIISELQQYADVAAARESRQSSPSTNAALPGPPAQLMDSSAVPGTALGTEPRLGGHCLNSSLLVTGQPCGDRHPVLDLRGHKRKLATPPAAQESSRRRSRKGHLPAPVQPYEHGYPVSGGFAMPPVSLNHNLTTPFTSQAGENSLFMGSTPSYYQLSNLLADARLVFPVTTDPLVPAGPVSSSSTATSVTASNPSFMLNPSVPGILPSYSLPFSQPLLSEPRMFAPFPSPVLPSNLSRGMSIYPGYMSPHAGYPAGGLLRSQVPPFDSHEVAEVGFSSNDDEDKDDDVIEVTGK

Experiment in all cases: log2 fold change, soluble protein after heating vs DMSO (PISA); higher = thermal stabilisation; K562 lysate, 10 uM; active = over 0.2 and 3.5 SD of the protein, either way, in both replicates (recomputed)
Compound in assay [1]: NCC(=O)Nc1ccc(-n2nc(C(F)(F)F)cc2-c2ccc3c(ccc4ccccc43)c2)cc1
The procedure, abridged:
(§1)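 Quantification was by TMTpro 16plex LC-MS/MS with equalised channel sums, applied to the supernatant after 21,000xg for 90 min. Samples were crude K562 extract at 1 mg/mL protein in PBS pH 7.4 with 1 mM MgCl2, treated with 10 μM compound for 30 min, heated for 3 min across 48°C-58°C, pooled and brought to 0.5% NP-40 at 4°C. Values are log-two fold changes in thermal stability relative to solvent controls, from duplicates.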

Compound in a further assay: O=C(CCCCCCC(=O)Nc1ccccc1)NO [vorinostat]
The procedure, abridged:
as §1

Compound in the next assay: O=C(O)c1ccc2c(c1)nc(Nc1cccc(Cl)c1)c1ccncc12 [silmitasertib]
The method in brief:
as §1

Compound in assay [2]: O=C1NC(=O)C(c2cnc3ccccn23)=C1c1cn2c3c(cc(F)cc13)CN(C(=O)N1CCCCC1)CC2
The procedure, abridged: as §1

Compound in another assay: c1cn2cc(-c3ccc4cn[nH]c4c3)nc(Nc3ccc(N4CCOCC4)cc3)c2n1 [entospletinib]
The method in brief: as §1

The list shows a part of the results.

Turning to RALBP1 (UniProt Q15311), the log2 fold change in assay [1] is inactive: -0.022; in the assay with vorinostat it was inactive: 0.022; with silmitasertib it was inactive: 0.023; in assay [2], inactive: -0.004; with entospletinib it was inactive: -0.004.
Consider RAB3IP (UniProt Q96QF0), for which the log2 fold change in assay [1] was inactive: -0.015; with vorinostat, inactive: -0.202; with silmitasertib, inactive: 0.038; in assay [2], inactive: -0.039; with entospletinib, inactive: -0.05.
On to RAN (UniProt P62826), for which the log2 fold change in assay [1] was inactive: 0.002; in the assay with vorinostat, inactive: 0.099; in the assay with silmitasertib it was inactive: -0.001; in assay [2] it was inactive: -0.008; with entospletinib, inactive: -0.004.
In the same order, the values of RAB3GAP1 (UniProt Q15042) are inactive: -0.015, inactive: -0.104, inactive: -0.01, inactive: -0.009 and inactive: -0.011.
On to RAD54L2 (UniProt Q9Y4B4), for which the log2 fold change in assay [1] was inactive: 0.119; with vorinostat, active: -0.487; with silmitasertib it was inactive: 0.04; in assay [2] it was inactive: 0.01; in the assay with entospletinib it was inactive: 0.014.
